Measurements as given in patent US10646596B2, “Near-infrared dye-bound transferrin, and contrast agent for photoacoustic imaging, including the near-infrared dye-bound transferrin” (CANON KABUSHIKI KAISHA, priority 2015, dated 2020).

Assay: Measurement of photoacoustic signal of aqueous sample solution
Format: physicochemical
Settings: solution in water, laser wavelength 790 nm, relative to ICG = 1

Row | Substance | PA signal intensity (ICG = 1)
1 | iTF (2.0): Human transferrin covalently bound to ICG-Sulfo-OSu near-infrared dye; number of dye(s) labeled 2.0 | 1.8
2 | iTF (4.8): Human transferrin covalently bound to ICG-Sulfo-OSu near-infrared dye; number of dye(s) labeled 4.8 | 5.0
3 | iTF (7.0): Human transferrin covalently bound to ICG-Sulfo-OSu near-infrared dye; number of dye(s) labeled 7.0 | 8.8
4 | iTF (8.3): Human transferrin covalently bound to ICG-Sulfo-OSu near-infrared dye; number of dye(s) labeled 8.3 | 10.4
5 | iTF (8.4): Human transferrin covalently bound to ICG-Sulfo-OSu near-infrared dye; number of dye(s) labeled 8.4 | 10.8
